# From PubChem BioAssay AID651640 (Broad Institute, 2012)
# The whole screen tested about 350,000 compounds, of which about 6,000 (1.7%) were called active. The shares of active, inactive and inconclusive entries below differ from those in the screen. No stated cut-off is given here; in the data, active means CPE inhibition above about 20% (passing the limit was not always enough); inconclusive means no clear call, values can overlap the other calls; tested in BHK-21 cells.
# Experiment: protection of cells from dengue 2 killing – plate reader, single concentration, primary screen (AID 651640);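 further: 0% = median of neutral control wells and 100% = median of positive control wells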
# Details: DENV2-infected cells, cytopathic effect rescue, at 9.99 µM, hits give high values
row,SMILES,CPE inhibition
1,C[C@@H]1CN([C@H](C)CO)C(=O)c2cc(NS(=O)(=O)c3cn(C)cn3)ccc2O[C@H]1CN(C)C(=O)Nc1ccc2c(c1)OCO2,inactive: 2.55%
2,O=C(O)C1Nc2c(Cl)cc(Cl)c(Cl)c2C2C=CCC12 (configuration not stated),inactive: 5.44%
3,Cc1ccc(S(=O)(=O)N(C)C[C@@H]2Oc3c(NC(=O)Nc4ccc5c(c4)OCO5)cccc3C(=O)N([C@@H](C)CO)C[C@H]2C)cc1,inconclusive: 27.8%
4,Cc1c(C(=O)CN2CCCC(C)(C)C2)c2ccccc2n1C,inactive: -3.36%
5,COCCCNc1nc2c(c(=O)n(Cc3cccc(Br)c3)c(=O)n2C)n1C,inconclusive: 29.4%
6,O=C(NCCN1CCOCC1)C1CCCN(S(=O)(=O)c2ccc(F)cc2)C1 (configuration not stated),inconclusive: 24.6%
7,O=C(CSc1nccc(=O)[nH]1)N1CCOCC1,active: 115%
8,CO[C@H]1CN(C)C(=O)c2cc(NC(=O)Nc3cccc(F)c3)ccc2OC[C@@H](C)NC[C@H]1C,inactive: 4.63%
9,CCCC1(c2ccccc2)NC(=O)N(CC(=O)Nc2ccc(N3CCOCC3)cc2)C1=O (configuration not stated),inconclusive: 24.5%
10,O=[N+]([O-])c1ccc(S(=O)(=O)NNC(=S)NCCc2ccccc2)cc1,inconclusive: 69.7%
11,CC(=O)c1ccc(OCC(=O)NCCC2=CCCCC2)cc1,inactive: 10.7%
12,C[C@@H]1CN([C@H](C)CO)C(=O)c2cc(NC(=O)Nc3ccccc3)ccc2O[C@@H]1CN(C)C(=O)NC1CCCCC1,inactive: -4.86%
13,OC[C@@H]1[C@@H](c2ccc(-c3ccccc3F)cc2)[C@@H]2CN(Cc3cncnc3)CCCCN12,inconclusive: 29.7%
14,COc1ccc(NC(=O)Nc2ccc3c(c2)CC(=O)N([C@@H](C)CO)C[C@@H](C)[C@@H](CN(C)S(=O)(=O)c2ccc(F)cc2)O3)cc1,active: 29.3%
15,Cc1noc(C)c1S(=O)(=O)N(C)C[C@H]1OCCCC[C@H](C)Oc2ccc(NC(=O)Nc3cccc4ccccc34)cc2C(=O)N([C@H](C)CO)C[C@@H]1C,inconclusive: 23.9%
16,CN1C(=O)c2cc(NC(=O)c3ccc4c(c3)OCO4)ccc2OC[C@H]2O[C@@H](CC(=O)O)CC[C@H]21,active: 68.9%
17,O=C(Cc1ccccn1)N1CC2(C1)[C@@H](c1ccccc1)[C@@H](CO)N2C(=O)c1ccncc1,inactive: 5.43%
18,Cc1ccc(C(NC(=O)C2CCN(CCOc3ccc(Cl)cc3Cl)CC2)c2ccccn2)cc1 (configuration not stated),inconclusive: 53.4%
19,CCN(CC(=O)Nc1ccc2c(c1)OCCO2)C(=O)/C=C/c1cccc(Br)c1,inconclusive: 21.5%
20,O=C(NC1CC1)c1cccc(S(=O)(=O)Nc2ccccc2F)c1,inconclusive: 24.7%
21,Cc1ccccc1CN(C)C(=O)[C@H](Cc1ccccc1)NC(=O)c1ccco1,inconclusive: 46.1%
22,CCc1nnc2c(N(C)S(=O)(=O)c3ccc(C)cc3)nc3ccccc3n12,inconclusive: 20.9%
23,O=C(Nc1ccc2c(c1)[C@@H]1C[C@H](CC(=O)N3CCCCC3)O[C@@H](CO)[C@@H]1O2)NC1CCCCC1,active: 32.2%
24,COc1ccc([C@H]2C[C@@H](n3cc(C4CC4)nn3)[C@H](O)CN2Cc2cccs2)cc1,active: 34.5%

# Part of the list above, bar-delimited:
row | SMILES | CPE inhibition
9 | CCCC1(c2ccccc2)NC(=O)N(CC(=O)Nc2ccc(N3CCOCC3)cc2)C1=O (configuration not stated) | inconclusive: 24.5%
10 | O=[N+]([O-])c1ccc(S(=O)(=O)NNC(=S)NCCc2ccccc2)cc1 | inconclusive: 69.7%

# Further compounds.

row,SMILES,CPE inhibition
1,C[C@H]1CN([C@@H](C)CO)S(=O)(=O)c2ccc(-c3cccnc3)cc2O[C@@H]1CN(C)CC1CCOCC1,inconclusive: 31.4%
2,CC(C)n1c(CNC(=O)c2ccccc2F)nnc1SCC(=O)NC1CCCCC1,inconclusive: 28.3%
3,CC1(C)OC2CCN3C(C(O)COS3(=O)=O)C2O1 (configuration not stated),active: 131%
4,C[C@H]1CN([C@@H](C)CO)C(=O)c2cc(NC(=O)C3CCCCC3)ccc2O[C@@H]1CN(C)CC1CC1,inactive: -0.361%
5,CC(=O)NCc1ccc(-c2csc(NC(=O)CCCc3nc4ccccc4c(=O)[nH]3)n2)cc1,inconclusive: 32.7%
6,O=C1CC(c2ccc(O)cc2)Oc2cc(O)ccc21 (configuration not stated),inconclusive: 37.8%
7,CCCn1cnc2c(SCc3ccccn3)nc(N)nc21,inconclusive: 39.9%
8,O=C(Cc1cccnc1)N[C@@H]1CC[C@H](CCn2cc(Cc3ccccc3)nn2)O[C@@H]1CO,inconclusive: 49.9%
9,CC1CCN(C(=S)c2ccc([N+](=O)[O-])cc2)CC1,inconclusive: 20%
10,COC(=O)C1=C(CS(=O)(=O)c2ccc(OC)c(OC)c2)NC(=O)NC1c1ccc(O)c(OC)c1 (configuration not stated),inactive: 5.62%
11,CC(=O)NC(CCS(C)(=O)=O)C(=O)Nc1cc(C)ccc1C (configuration not stated),inconclusive: 28.3%
12,O=C(NC1CCC1)[C@@H]1[C@@H](CO)[C@@H]2Cn3c(cccc3=O)[C@H]1N2CC1CCCC1,inconclusive: 21.2%
13,N/C(=N\OC(=O)CCCc1ccccc1)c1ccccc1,inconclusive: 33.2%
14,CCC(=O)N1[C@@H](CO)[C@H](c2ccc(-c3ccccc3)cc2)[C@@H]1CNC(=O)COC,inactive: 31.2%
15,COC(=O)C1CCN(C(=O)COC(=O)CNC(=O)c2ccc(Cl)cc2Cl)CC1,inconclusive: 43.5%
16,COC(=O)[C@H](C(C)C)N(Cc1ccccc1)S(=O)(=O)CCN1CCN(c2ccccc2)CC1,inconclusive: 29.8%
17,Cc1cccc(-c2noc(CN(C)C(=O)c3ccoc3C)n2)c1,inconclusive: 45.9%
18,CC(C)CC#Cc1ccc2c(c1)O[C@H](CN(C)CC1CCOCC1)[C@H](C)CN([C@@H](C)CO)S2(=O)=O,inconclusive: 21.6%
19,CC(C)NC(=O)N(C)C[C@@H]1Oc2ccc(NC(=O)Cc3cn(C)c4ccccc34)cc2CC(=O)N([C@H](C)CO)C[C@H]1C,inactive: -1.98%
20,COc1cc(CN2CCCC(N3CCN(c4ccccc4C)CC3)C2)ccc1O (configuration not stated),inconclusive: 21.3%
21,COc1ccc(S(=O)(=O)N2CCC(C(=O)NCCCN3CCOCC3)CC2)cc1,inconclusive: 33%
22,COc1ccccc1CCC(=O)Nc1ccc(OC)c(S(=O)(=O)N2CCOCC2)c1,inconclusive: 35.8%
23,O=C(CCCC(=O)NN=Cc1cccc(O)c1)NN=Cc1cccc(O)c1,inconclusive: 20.7%
24,CCCNC(=O)N[C@H]1C=C[C@H](CC(=O)NC2CCC2)O[C@H]1CO,active: 26.2%

row,SMILES,CPE inhibition
1,CCOc1ccc(C(=O)O/N=C(\N)c2ccccn2)cc1,inconclusive: 20.5%
2,COc1cc(C(=O)NNC(=O)c2cc(S(=O)(=O)N(C)C)ccc2N2CCCC2)cc(OC)c1OC,inconclusive: 27.9%
3,Cc1cc(C)n2nc(SCC(=O)N3CCC(C(=O)O)CC3)nc2n1,inactive: 6.35%
4,C[C@@H]1CCCCO[C@@H](CN(C)C(=O)c2ccncc2)[C@@H](C)CN([C@H](C)CO)C(=O)c2cc(NC(=O)NC3CCCCC3)ccc2O1,active: 26.5%
5,O=C(C[C@@H]1C[C@H]2c3cc(NC(=O)NC4CCCC4)ccc3O[C@H]2[C@@H](CO)O1)NCC1CC1,inactive: -2.26%
6,O=C(N[C@@H](Cc1ccc(O)cc1)C(=O)O)c1ccncc1,inconclusive: 65%
7,O=C(C[C@H]1C=C[C@H](NC(=O)Nc2cccc(F)c2)[C@H](CO)O1)NCC1CCCCC1,inconclusive: 27.3%
8,CC(C)NC(=O)N(C)C[C@H]1OCCCC[C@H](C)Oc2ccc(NS(=O)(=O)c3ccccc3)cc2C(=O)N([C@@H](C)CO)C[C@@H]1C,inactive: -1.64%
9,COc1ccc(CNC(=S)Nc2ccc(F)c(Cl)c2)cc1OC,inactive: 2.04%
10,CCNC(=O)[C@H]1[C@H](CO)[C@H]2Cn3c(ccc(C4=CCCC4)c3=O)[C@H]2N1CC1CC1,inconclusive: 33.8%
11,C[C@@H]1CN([C@@H](C)CO)C(=O)c2cccc(NC(=O)CCCCCC(=O)Nc3ccccc3N)c2O[C@@H]1CN(C)S(=O)(=O)c1ccccc1,inactive: 9.56%
12,CCN(CC)C(=O)C1=C(C)N(CCCN2CCCC2=O)C(=O)C(CC(=O)NCC2CCCCC2)C1 (configuration not stated),active: 74.4%
13,C[C@@H]1CCCCO[C@H](CN(C)C)[C@H](C)CN([C@H](C)CO)C(=O)c2cc(NS(=O)(=O)c3cn(C)cn3)ccc2O1,inactive: -2.76%
14,COC(=O)[C@@H]1C[C@@]2(O)[C@H](O)[C@H](O)[C@H](O)C[C@H]2N1Cc1ccc(-c2ccccc2)cc1,inconclusive: 46.1%
15,COc1cccc(CN2[C@@H]3CNC[C@H]2C3c2ccc(-c3cccc(C#N)c3)cc2)c1 (some centres not stated),inconclusive: 27.4%
16,COc1cc2c(cc1OC)CN(C(=O)CN1CCN(S(=O)(=O)c3ccccc3Br)CC1)CC2,inconclusive: 22.6%
17,CCC1=C2CC[C@H]3C(=O)N(C)C(=O)[C@H]3[C@H]2[C@@]2(Cc3ccccc3)C(=NCCOC)OC(=O)N2C1=O,active: 40.3%
18,Cc1cc(C)cc(OCC(=O)OCC(=O)N(CC(C)C)c2c(N)n(Cc3ccccc3)c(=O)[nH]c2=O)c1,inconclusive: 60.8%
19,Cc1ccn2c(=O)nc(SCC(=O)N3CCCCC3)nc2c1,inconclusive: 77.4%
20,O=C(CN1CCOCC1)N1CCCCN2[C@@H](CO)[C@@H](c3ccc(-c4ccccc4)cc3)[C@@H]2C1,active: 60.7%
21,C[C@@H]1CN([C@@H](C)CO)C(=O)c2cccc(NC(=O)c3nc4ccccc4s3)c2O[C@H]1CN(C)S(=O)(=O)c1ccccc1,inactive: 11.4%
22,CCC/C(C#CCCN1C(=O)c2ccccc2C1=O)=C1/c2ccccc2C(=O)N1c1ccccc1,active: 78.7%
23,O=C1CC(c2cccc(Cl)c2)CC(O)=C1C=NC1CCCC1 (configuration not stated),inconclusive: 37.4%
24,COc1ccccc1S(=O)(=O)N(C)C[C@H]1OCc2cnnn2CCCC(=O)N([C@@H](C)CO)C[C@@H]1C,inconclusive: 26%

# Filtered by structure: the compounds so far with fluorine
row,SMILES,CPE inhibition
6,O=C(NCCN1CCOCC1)C1CCCN(S(=O)(=O)c2ccc(F)cc2)C1 (configuration not stated),inconclusive: 24.6%
8,CO[C@H]1CN(C)C(=O)c2cc(NC(=O)Nc3cccc(F)c3)ccc2OC[C@@H](C)NC[C@H]1C,inactive: 4.63%
13,OC[C@@H]1[C@@H](c2ccc(-c3ccccc3F)cc2)[C@@H]2CN(Cc3cncnc3)CCCCN12,inconclusive: 29.7%
14,COc1ccc(NC(=O)Nc2ccc3c(c2)CC(=O)N([C@@H](C)CO)C[C@@H](C)[C@@H](CN(C)S(=O)(=O)c2ccc(F)cc2)O3)cc1,active: 29.3%
20,O=C(NC1CC1)c1cccc(S(=O)(=O)Nc2ccccc2F)c1,inconclusive: 24.7%
2,CC(C)n1c(CNC(=O)c2ccccc2F)nnc1SCC(=O)NC1CCCCC1,inconclusive: 28.3%
7,O=C(C[C@H]1C=C[C@H](NC(=O)Nc2cccc(F)c2)[C@H](CO)O1)NCC1CCCCC1,inconclusive: 27.3%
9,COc1ccc(CNC(=S)Nc2ccc(F)c(Cl)c2)cc1OC,inactive: 2.04%
